Patent US11541084B2, “Method of promoting bone regrowth” (GENMONT BIOTECH INC., priority 2017, dated 2023)

Test system: ovariectomized (OVX) mice
Assay: Bone tissue analysis by micro computed tomography of the femur in the osteoporosis mouse model
Assay type: in vivo, mice (ICR female)
Conditions: right femur, tube feed for 28 days, mean ±SD, * p<0.05, ** p<0.01, disease group OVX+H2O 0.344 ± 0.04, sham control 0.502 ± 0.04
Method: Experiment 1: Bone tissue analysis
(§1) (1) preparation of viable bacteria: Inoculating the Lactobacillus plantarum GMNL-662 from a frozen tube to 1 ml of MRS broth, and standing under 37° C. for aerobically incubating for 20 hours. The next day, adding 15 μl culture solution into 1.5 ml of MRS broth (1% secondary activation), and then standing under 37° C. for aerobically incubating for 20 hours. Estimating the bacteria number by using OD 600 to adjust the bacteria concentration to 8×10^7 CFU/ml.
as §1, with “(2)” for “(1)”, “dead” for “viable”, “Plantarum strain” for “plantarum”, “Estimating the bacteria number by using OD 600 to adjust the bacteria concentration to 8×10^7 CFU/ml.” left out
The backbone of the right femur far from the end was taken a computer tomography by a micro computed tomography (SkyScan 1076, Kontizh, Belgium, with resolution of 18 μm), and the trabecular bone volume ratio (i.e. bone volume/tissue volume) is analyzed by a software. The analyzed position was selected to include the area of 100 pieces under the growth plate excluding cortical bone. […] The obtained data in the experiments were analyzed with two-way analysis of variance, and executed T-test statistical analysis. […]

NCCCC(O)(P(=O)(O)O)P(=O)(O)O [Alendronate, reference compound]
Femur bone mineral density (BMD, excluding cortical bone): 0.426 ± 0.02* g/cm^3
